Assay results from the supplement of paper PMC8728848.
This is one part of the list.

What was measured:
Experiment in all cases: glycan array binding signal (z-score within array); higher = stronger binding
Conditions in all cases: glycan notation: IUPAC condensed, linker removed
[1] = target: Neu5Ac(a2-3)Gal(b1-3)GlcNAc(b1-6)GalNAc
Outline: (§1)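 The binding signal is a Z-score computed within each array. Data were drawn from 3228 arrays in the Consortium for Functional Glycomics database, restricted to those with a known protein sequence. Scores were averaged over arrays of the same protein sequence at different concentrations or buffers, and over linkers, and negative values can be taken as non-binding.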

[2] = target: Neu5Ac(a2-3)Gal(b1-3)GlcNAc6S
Outline: as §1

[3] = target: Neu5Ac(a2-3)Gal(b1-3)[Fuc(a1-4)]GlcNAc
Outline: as §1

[4] = target: Neu5Ac(a2-3)Gal(b1-3)[Fuc(a1-4)]GlcNAc(b1-3)Gal(b1-3)[Fuc(a1-4)]GlcNAc
Outline: as §1

[5] = target: Neu5Ac(a2-3)Gal(b1-3)[Fuc(a1-4)]GlcNAc(b1-3)Gal(b1-4)[Fuc(a1-3)]GlcNAc
Outline: as §1

[6] = target: Neu5Ac(a2-3)Gal(b1-3)[GlcNAc(b1-6)]GalNAc
Outline: as §1

[7] = target: Neu5Ac(a2-3)Gal(b1-3)[Neu5Ac(a2-6)]GalNAc
Outline: as §1

[8] = target: Neu5Ac(a2-3)Gal(b1-3)[Neu5Ac(a2-6)]GlcNAc(b1-3)[Fuc(a1-3)[Gal(b1-4)]GlcNAc(b1-6)]Gal(b1-4)Glc
Outline: as §1

[9] = target: Neu5Ac(a2-3)Gal(b1-3)]Neu5Ac(a2-3)Gal(b1-4)]GlcNAc
Outline: as §1

[10] = target: Neu5Ac(a2-3)Gal(b1-4)Glc
Outline: as §1

[11] = target: Neu5Ac(a2-3)Gal(b1-4)GlcNAc
Outline: as §1

[12] = target: Neu5Ac(a2-3)Gal(b1-4)GlcNAc(b1-2)Man
Outline: as §1

[13] = target: Neu5Ac(a2-3)Gal(b1-4)GlcNAc(b1-2)Man(a1-3)[GlcNAc(b1-4)][Neu5Ac(a2-3)Gal(b1-4)GlcNAc(b1-2)Man(a1-6)]Man(b1-4)GlcNAc(b1-4)GlcNAc
Outline: as §1

[14] = target: Neu5Ac(a2-3)Gal(b1-4)GlcNAc(b1-2)Man(a1-3)[Neu5Ac(a2-3)Gal(b1-4)GlcNAc(b1-2)Man(a1-6)]Man(b1-4)GlcNAc(b1-4)GlcNAc
Outline: as §1

[15] = target: Neu5Ac(a2-3)Gal(b1-4)GlcNAc(b1-2)Man(a1-3)[Neu5Ac(a2-3)Gal(b1-4)GlcNAc(b1-2)Man(a1-6)]Man(b1-4)GlcNAc(b1-4)[Fuc(a1-6)]GlcNAc
Outline: as §1

[16] = target: Neu5Ac(a2-3)Gal(b1-4)GlcNAc(b1-2)Man(a1-3)[Neu5Ac(a2-6)Gal(b1-4)GlcNAc(b1-2)Man(a1-6)]Man(b1-4)GlcNAc(b1-4)GlcNAc
Outline: as §1

[17] = target: Neu5Ac(a2-3)Gal(b1-4)GlcNAc(b1-2)[Neu5Ac(a2-3)Gal(b1-4)GlcNAc(b1-4)]Man(a1-3)[GlcNAc(b1-4)][Neu5Ac(a2-3)Gal(b1-4)GlcNAc(b1-2)[Neu5Ac(a2-3)Gal(b1-4)GlcNAc(b1-6)]Man(a1-6)]Man(b1-4)GlcNAc(b1-4)GlcNAc
Outline: as §1

[18] = target: Neu5Ac(a2-3)Gal(b1-4)GlcNAc(b1-2)[Neu5Ac(a2-3)Gal(b1-4)GlcNAc(b1-4)]Man(a1-3)[GlcNAc(b1-4)][Neu5Ac(a2-3)Gal(b1-4)GlcNAc(b1-4)Man(a1-6)]Man(b1-4)GlcNAc(b1-4)GlcNAc
Outline: as §1

[19] = target: Neu5Ac(a2-3)Gal(b1-4)GlcNAc(b1-2)[Neu5Ac(a2-3)Gal(b1-4)GlcNAc(b1-6)]Man(a1-6)[Neu5Ac(a2-3)Gal(b1-4)GlcNAc(b1-2)Man(a1-3)][GlcNAc(b1-4)]Man(b1-4)GlcNAc(b1-4)GlcNAc
Outline: as §1

[20] = target: Neu5Ac(a2-3)Gal(b1-4)GlcNAc(b1-3)Gal
Outline: as §1

[21] = target: Neu5Ac(a2-3)Gal(b1-4)GlcNAc(b1-3)Gal(b1-3)GlcNAc
Outline: as §1

[22] = target: Neu5Ac(a2-3)Gal(b1-4)GlcNAc(b1-3)Gal(b1-4)GlcNAc
Outline: as §1

[23] = target: Neu5Ac(a2-3)Gal(b1-4)GlcNAc(b1-3)Gal(b1-4)GlcNAc(b1-2)Man(a1-3)[Neu5Ac(a2-3)Gal(b1-4)GlcNAc(b1-3)Gal(b1-4)GlcNAc(b1-2)Man(a1-6)]Man(b1-4)GlcNAc(b1-4)GlcNAc
Outline: as §1

[24] = target: Neu5Ac(a2-3)Gal(b1-4)GlcNAc(b1-3)Gal(b1-4)GlcNAc(b1-3)Gal(b1-4)GlcNAc
Outline: as §1

[25] = target: Neu5Ac(a2-3)Gal(b1-4)GlcNAc(b1-3)Gal(b1-4)GlcNAc(b1-3)Gal(b1-4)GlcNAc(b1-2)Man(a1-3)[Neu5Ac(a2-3)Gal(b1-4)GlcNAc(b1-3)Gal(b1-4)GlcNAc(b1-3)Gal(b1-4)GlcNAc(b1-2)Man(a1-6)]GalNAc
Outline: as §1

[26] = target: Neu5Ac(a2-3)Gal(b1-4)GlcNAc(b1-3)Gal(b1-4)GlcNAc(b1-3)GalNAc
Outline: as §1

[27] = target: Neu5Ac(a2-3)Gal(b1-4)GlcNAc(b1-3)Gal(b1-4)GlcNAc(b1-3)[Neu5Ac(a2-3)Gal(b1-4)GlcNAc(b1-3)Gal(b1-4)GlcNAc(b1-6)]GalNAc
Outline: as §1

[28] = target: Neu5Ac(a2-3)Gal(b1-4)GlcNAc(b1-3)Gal(b1-4)GlcNAc(b1-6)[Gal(b1-3)]GalNAc
Outline: as §1

[29] = target: Neu5Ac(a2-3)Gal(b1-4)GlcNAc(b1-3)Gal(b1-4)[Fuc(a1-3)]GlcNAc
Outline: as §1

[30] = target: Neu5Ac(a2-3)Gal(b1-4)GlcNAc(b1-3)GalNAc
Outline: as §1

B1: BT4246 (Bacteroides thetaiotaomicron), Q89ZX5 (protein)
chain: MGSSHHHHHHENLYFQGHMASDYLDVVPPEQPNIDDAMSSPTRALGFLYSCYGGVSTDLPSAYLGEINSTTDEYVLPYSWNTDGYWGAYAFNTASSTNQDWLWGTTYQYIGQCYLFLQKLENAGSDIASDAEKEQWRAECQFLVAYYHFATLRRYGPIPITDSYIPMDTPTSEYNGRFHFDYCVDWIANQLDEAAKVLPANRTVTNEWGRATSTIAKAVKARLLLYAASPLWNGSFPYPNWQNENFETPGYGKALVSNTYDKSKWERALAACQEALTLATTSGDRELYDDDEYYSRQSLNLPFVPGVADVEDNKEFLKNVMKMRYAVSTRESEGNKEIIWGLSNQFDFYSRYPLRILKKSDGTWHAGYSGVSPTLYTFEHFYTANGKLPEKDLDFTPSSEWFESAGISSREDIIKLNVGREPRFYAWMAFDGGDYGTKFAAGSPLKLEMRNSEMHGYNPSLFNRDHSVTGFLTQKFVDPVTEFYTAGGSTSGTSAPTILFRLAELYLNVAECHAALGNTQEAIDALNPVRERAGIPKLTLADITNNMTIKDWVHNERFVELWNEGHRFFDVRRWAEGAKYFGANKREGLNAEVQSPTFEEFNKRTTVDAPYVWENRMYLNPVFYNEVYKNPQMVQAPGY
Q: With B1 as the binder, how does the “glycan array binding signal (z-score)” value [1] read?
A: 0.34

Q: What about the “glycan array binding signal (z-score)” value [2] of the same binder?
A: 0.114

Q: And the “glycan array binding signal (z-score)” value [3]?
A: -0.203

Q: What about the “glycan array binding signal (z-score)” value [4] of the same binder?
A: 0.707

Q: What about the “glycan array binding signal (z-score)” value [5] of the same binder?
A: 0.647

Q: What about the “glycan array binding signal (z-score)” value [6] of the same binder?
A: -0.132

Q: What about the “glycan array binding signal (z-score)” value [7] of the same binder?
A: -0.758

Q: And the “glycan array binding signal (z-score)” value [8]?
A: -0.055

Q: And the “glycan array binding signal (z-score)” value [9]?
A: -0.658

Q: What about the “glycan array binding signal (z-score)” value [10] of the same binder?
A: -0.458

Q: What about the “glycan array binding signal (z-score)” value [11] of the same binder?
A: 1.26

Q: What about the “glycan array binding signal (z-score)” value [12] of the same binder?
A: -0.803

Q: And the “glycan array binding signal (z-score)” value [13]?
A: -1.16

Q: What about the “glycan array binding signal (z-score)” value [14] of the same binder?
A: 0.72

Q: And the “glycan array binding signal (z-score)” value [15]?
A: 0.004

Q: And the “glycan array binding signal (z-score)” value [16]?
A: 1.6

Q: And the “glycan array binding signal (z-score)” value [17]?
A: 0.49

Q: And the “glycan array binding signal (z-score)” value [18]?
A: -1.41

Q: What about the “glycan array binding signal (z-score)” value [19] of the same binder?
A: -0.263

Q: What about the “glycan array binding signal (z-score)” value [20] of the same binder?
A: -0.929

Q: And the “glycan array binding signal (z-score)” value [21]?
A: -0.03

Q: And the “glycan array binding signal (z-score)” value [22]?
A: -0.556

Q: What about the “glycan array binding signal (z-score)” value [23] of the same binder?
A: 0.664

Q: And the “glycan array binding signal (z-score)” value [24]?
A: 0.618

Q: And the “glycan array binding signal (z-score)” value [25]?
A: 2.21

Q: And the “glycan array binding signal (z-score)” value [26]?
A: -1.15

Q: What about the “glycan array binding signal (z-score)” value [27] of the same binder?
A: 0.468

Q: And the “glycan array binding signal (z-score)” value [28]?
A: 0.439

Q: And the “glycan array binding signal (z-score)” value [29]?
A: 1.87

Q: What about the “glycan array binding signal (z-score)” value [30] of the same binder?
A: -0.143
